Data taken from the supplement of paper PMC11006884.
The entries are a selection whose mix differs from that of the whole data set.

Sequences of proteins named here, by UniProt entry; tags and fusion partners are left off. A change or cut given only in a name is not applied to a line headed by its entry.
UniProt Q5M775: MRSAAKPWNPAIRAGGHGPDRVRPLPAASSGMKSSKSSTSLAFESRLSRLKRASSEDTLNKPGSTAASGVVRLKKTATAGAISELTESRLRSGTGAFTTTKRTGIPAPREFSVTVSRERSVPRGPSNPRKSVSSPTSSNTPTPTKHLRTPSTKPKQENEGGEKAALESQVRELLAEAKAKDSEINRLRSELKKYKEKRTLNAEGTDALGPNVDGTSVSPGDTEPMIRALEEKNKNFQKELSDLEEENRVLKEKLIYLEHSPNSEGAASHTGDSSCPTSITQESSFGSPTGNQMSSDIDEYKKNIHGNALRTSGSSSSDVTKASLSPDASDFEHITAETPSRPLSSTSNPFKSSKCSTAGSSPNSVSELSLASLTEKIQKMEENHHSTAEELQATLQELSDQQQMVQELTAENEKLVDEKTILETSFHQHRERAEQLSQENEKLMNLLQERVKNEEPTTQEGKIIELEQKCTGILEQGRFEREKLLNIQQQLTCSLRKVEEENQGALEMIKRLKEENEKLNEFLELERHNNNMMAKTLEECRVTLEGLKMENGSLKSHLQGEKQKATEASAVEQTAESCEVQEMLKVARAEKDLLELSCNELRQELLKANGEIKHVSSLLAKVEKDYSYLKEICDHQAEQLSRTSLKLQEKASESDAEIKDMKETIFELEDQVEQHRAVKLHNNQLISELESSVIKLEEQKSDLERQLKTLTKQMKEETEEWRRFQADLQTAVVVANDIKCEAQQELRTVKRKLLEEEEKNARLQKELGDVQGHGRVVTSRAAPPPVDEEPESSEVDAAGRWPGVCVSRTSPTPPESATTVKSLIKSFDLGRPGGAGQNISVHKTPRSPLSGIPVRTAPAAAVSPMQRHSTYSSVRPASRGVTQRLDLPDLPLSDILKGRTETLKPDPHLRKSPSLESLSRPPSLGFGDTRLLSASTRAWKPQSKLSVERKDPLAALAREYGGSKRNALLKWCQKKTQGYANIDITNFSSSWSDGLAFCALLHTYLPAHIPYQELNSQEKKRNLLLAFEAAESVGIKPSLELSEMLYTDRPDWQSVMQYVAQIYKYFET
UniProt Q6NZ36: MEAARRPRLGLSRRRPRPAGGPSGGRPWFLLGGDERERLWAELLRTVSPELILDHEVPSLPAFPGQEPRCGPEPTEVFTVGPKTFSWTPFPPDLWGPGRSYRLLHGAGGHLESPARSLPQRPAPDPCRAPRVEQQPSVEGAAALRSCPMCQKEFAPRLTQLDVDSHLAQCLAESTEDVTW
UniProt Q6AI12: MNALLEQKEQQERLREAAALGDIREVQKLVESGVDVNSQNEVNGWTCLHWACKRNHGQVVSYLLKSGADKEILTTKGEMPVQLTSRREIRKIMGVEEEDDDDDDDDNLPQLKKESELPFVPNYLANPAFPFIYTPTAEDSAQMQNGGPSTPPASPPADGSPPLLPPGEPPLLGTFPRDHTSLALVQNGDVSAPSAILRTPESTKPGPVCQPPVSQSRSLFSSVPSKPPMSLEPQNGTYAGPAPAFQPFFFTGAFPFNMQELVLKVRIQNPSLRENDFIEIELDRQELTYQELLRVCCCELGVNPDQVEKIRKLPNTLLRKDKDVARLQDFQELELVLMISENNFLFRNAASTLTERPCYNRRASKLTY
UniProt Q5T6F2: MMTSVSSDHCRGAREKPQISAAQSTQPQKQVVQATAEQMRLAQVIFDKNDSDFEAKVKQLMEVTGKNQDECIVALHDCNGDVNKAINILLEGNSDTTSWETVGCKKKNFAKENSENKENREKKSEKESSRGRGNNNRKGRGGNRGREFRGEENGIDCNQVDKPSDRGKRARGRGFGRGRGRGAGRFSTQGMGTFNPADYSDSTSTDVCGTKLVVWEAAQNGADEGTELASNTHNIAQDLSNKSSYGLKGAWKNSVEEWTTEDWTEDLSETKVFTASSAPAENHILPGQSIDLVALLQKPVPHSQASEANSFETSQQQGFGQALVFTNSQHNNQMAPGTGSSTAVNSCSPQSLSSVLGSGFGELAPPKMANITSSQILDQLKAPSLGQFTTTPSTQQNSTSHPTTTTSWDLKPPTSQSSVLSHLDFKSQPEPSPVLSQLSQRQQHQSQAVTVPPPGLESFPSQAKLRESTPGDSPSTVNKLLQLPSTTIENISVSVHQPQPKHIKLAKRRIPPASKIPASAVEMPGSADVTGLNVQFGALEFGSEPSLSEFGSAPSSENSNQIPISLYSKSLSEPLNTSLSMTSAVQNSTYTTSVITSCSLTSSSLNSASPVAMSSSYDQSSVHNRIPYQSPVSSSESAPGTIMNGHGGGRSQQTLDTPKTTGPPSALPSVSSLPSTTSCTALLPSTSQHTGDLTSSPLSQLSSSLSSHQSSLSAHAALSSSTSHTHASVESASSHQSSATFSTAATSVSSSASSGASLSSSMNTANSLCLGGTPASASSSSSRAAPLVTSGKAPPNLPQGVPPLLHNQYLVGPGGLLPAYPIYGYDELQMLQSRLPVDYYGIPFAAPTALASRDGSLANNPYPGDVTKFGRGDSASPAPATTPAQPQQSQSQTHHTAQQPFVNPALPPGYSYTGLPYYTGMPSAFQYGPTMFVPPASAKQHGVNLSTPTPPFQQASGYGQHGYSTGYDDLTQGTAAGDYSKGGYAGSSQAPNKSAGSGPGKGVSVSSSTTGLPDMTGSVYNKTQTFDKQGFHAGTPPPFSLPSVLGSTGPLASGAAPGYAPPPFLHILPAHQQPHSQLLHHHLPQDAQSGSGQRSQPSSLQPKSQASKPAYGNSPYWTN
UniProt Q6KC79: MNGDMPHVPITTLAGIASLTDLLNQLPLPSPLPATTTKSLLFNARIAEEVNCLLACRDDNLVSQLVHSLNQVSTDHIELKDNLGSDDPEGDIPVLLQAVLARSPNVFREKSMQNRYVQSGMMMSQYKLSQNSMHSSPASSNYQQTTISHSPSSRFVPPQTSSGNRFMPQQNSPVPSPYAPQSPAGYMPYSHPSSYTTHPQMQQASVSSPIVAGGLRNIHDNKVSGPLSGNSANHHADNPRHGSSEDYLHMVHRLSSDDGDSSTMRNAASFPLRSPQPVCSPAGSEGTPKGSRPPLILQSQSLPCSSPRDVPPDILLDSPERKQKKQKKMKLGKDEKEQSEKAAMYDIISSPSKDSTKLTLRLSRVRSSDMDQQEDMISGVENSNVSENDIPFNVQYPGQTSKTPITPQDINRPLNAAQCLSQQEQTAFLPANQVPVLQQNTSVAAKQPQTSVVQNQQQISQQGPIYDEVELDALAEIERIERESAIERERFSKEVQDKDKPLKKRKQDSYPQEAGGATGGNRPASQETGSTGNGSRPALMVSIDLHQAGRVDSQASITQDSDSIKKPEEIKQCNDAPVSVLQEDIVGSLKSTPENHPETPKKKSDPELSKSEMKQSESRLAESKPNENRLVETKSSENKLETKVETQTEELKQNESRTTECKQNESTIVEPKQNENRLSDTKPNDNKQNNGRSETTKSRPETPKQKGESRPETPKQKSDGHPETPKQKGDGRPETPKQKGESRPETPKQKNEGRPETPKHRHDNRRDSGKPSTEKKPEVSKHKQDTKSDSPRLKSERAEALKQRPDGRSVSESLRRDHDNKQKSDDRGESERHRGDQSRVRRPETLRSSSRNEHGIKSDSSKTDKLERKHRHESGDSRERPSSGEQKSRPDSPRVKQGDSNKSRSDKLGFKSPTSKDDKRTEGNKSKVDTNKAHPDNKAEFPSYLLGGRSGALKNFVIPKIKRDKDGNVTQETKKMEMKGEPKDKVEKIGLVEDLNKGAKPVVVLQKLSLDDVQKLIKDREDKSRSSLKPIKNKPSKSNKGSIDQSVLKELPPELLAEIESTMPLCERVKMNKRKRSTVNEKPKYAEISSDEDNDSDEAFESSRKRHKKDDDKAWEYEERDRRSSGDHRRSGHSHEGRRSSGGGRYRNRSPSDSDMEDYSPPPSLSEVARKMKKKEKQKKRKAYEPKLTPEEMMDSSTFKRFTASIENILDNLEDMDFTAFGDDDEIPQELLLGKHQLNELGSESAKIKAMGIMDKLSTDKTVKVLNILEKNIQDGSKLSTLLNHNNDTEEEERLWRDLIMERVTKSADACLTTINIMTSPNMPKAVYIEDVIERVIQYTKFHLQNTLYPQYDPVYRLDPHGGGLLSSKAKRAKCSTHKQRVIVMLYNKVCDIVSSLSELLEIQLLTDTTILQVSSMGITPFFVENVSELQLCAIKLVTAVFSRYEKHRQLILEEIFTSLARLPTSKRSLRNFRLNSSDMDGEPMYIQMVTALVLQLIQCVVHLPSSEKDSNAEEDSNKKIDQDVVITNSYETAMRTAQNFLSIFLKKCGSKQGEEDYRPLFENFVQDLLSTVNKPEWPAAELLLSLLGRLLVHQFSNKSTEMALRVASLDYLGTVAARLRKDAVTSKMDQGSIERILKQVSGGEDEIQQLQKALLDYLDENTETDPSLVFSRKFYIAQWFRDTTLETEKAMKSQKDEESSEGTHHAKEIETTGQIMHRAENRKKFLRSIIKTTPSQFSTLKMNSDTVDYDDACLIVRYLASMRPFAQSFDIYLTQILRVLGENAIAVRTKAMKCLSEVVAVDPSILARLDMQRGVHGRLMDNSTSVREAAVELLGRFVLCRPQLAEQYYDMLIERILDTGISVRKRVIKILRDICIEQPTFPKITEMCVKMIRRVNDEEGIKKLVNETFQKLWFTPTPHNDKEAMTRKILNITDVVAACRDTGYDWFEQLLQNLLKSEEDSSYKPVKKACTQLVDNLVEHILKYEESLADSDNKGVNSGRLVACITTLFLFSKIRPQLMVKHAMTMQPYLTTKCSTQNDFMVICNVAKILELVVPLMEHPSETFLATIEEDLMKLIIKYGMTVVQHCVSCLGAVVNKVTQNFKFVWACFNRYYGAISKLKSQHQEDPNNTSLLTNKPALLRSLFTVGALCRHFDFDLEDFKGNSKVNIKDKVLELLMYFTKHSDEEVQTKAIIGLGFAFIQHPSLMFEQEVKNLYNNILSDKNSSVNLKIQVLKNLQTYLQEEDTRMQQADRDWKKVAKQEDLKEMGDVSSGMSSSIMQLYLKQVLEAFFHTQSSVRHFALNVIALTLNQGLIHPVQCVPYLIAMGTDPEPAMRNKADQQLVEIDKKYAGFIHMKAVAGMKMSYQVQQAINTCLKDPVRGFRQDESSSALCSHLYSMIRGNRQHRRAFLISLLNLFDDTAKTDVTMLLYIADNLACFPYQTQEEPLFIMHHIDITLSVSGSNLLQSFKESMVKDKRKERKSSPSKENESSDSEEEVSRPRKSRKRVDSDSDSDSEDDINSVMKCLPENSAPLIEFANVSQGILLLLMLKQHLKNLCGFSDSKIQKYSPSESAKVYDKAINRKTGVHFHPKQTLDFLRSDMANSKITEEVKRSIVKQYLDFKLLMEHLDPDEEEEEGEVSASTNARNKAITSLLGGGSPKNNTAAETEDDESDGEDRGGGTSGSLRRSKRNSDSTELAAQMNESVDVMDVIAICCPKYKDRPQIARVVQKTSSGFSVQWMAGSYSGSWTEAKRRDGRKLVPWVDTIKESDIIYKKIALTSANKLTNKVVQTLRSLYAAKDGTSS
UniProt Q6UB35, whole entry, looked up: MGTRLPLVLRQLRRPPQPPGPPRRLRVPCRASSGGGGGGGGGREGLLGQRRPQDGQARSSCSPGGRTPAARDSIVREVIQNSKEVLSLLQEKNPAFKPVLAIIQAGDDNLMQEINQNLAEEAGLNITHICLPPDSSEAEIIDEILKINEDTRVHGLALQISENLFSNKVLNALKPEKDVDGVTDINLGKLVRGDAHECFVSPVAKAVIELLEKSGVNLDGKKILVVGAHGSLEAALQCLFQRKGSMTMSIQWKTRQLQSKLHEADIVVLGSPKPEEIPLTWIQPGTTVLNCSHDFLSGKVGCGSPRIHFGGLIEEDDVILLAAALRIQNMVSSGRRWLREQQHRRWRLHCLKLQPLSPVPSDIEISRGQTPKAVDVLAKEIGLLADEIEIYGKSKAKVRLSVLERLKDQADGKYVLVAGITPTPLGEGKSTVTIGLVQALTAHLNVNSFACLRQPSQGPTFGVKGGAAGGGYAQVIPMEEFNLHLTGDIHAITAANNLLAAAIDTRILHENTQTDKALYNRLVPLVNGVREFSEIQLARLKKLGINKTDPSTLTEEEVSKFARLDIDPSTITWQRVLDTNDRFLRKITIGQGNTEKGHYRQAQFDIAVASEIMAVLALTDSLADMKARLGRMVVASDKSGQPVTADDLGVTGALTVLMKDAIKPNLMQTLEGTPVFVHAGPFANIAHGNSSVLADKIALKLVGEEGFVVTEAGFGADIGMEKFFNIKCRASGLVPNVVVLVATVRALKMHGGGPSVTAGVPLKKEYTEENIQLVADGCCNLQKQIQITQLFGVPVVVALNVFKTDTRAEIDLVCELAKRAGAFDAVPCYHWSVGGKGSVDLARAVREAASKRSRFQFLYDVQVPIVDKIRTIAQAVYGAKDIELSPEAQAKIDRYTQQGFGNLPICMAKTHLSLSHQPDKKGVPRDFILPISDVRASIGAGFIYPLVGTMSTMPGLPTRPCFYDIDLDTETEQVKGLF

These targets were tested with COC(=O)C#Cc1ccccc1 [methyl 3-phenylpropiolate] (assay: log2 ratio of iodoacetamide-alkyne labeling of the cysteine site, DMSO over compound (competition); higher = stronger covalent engagement of the cysteine by the compound, active = 1 or more). Conditions: 500 µM; treatment time 1 h; system: HEK293T cell lysate.
Summary of the method: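 HEK293T lysate (2 mg/mL) was treated with DMSO or electrophile (500 µM, 1 h, ambient temperature), then iodoacetamide alkyne (1 h), clicked to sCIP-TMT reagents, pooled, trypsin-digested overnight at 37 °C, streptavidin-enriched and acid-eluted. Peptides were run on Orbitrap Eclipse LC-MS/MS with FAIMS and quantified in FragPipe. The log2 competition ratio per cysteine is mean control-channel over mean compound-channel reporter intensity. Duplicate channels and three replicates were used, and cysteines quantified in only one replicate were excluded.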

Row | Target | log2 ratio of iodoacetamide-alkyne labeling
1 | MIA3 C1486 (UniProt Q5JRA6) | inactive: 0.142
2 | USP34 C741 (UniProt Q70CQ2) | inactive: 0.397
3 | MAP1S C51 (UniProt Q66K74) | inactive: 0.5
4 | EDC4 C1130 (UniProt Q6P2E9) | inactive: 0.00439
5 | IQSEC1 C906 (UniProt Q6DN90) | inactive: 0.413
6 | RRP12 C102 (UniProt Q5JTH9) | inactive: 0.419
7 | RBM20 C1099 (UniProt Q5T481) | inactive: 0.169
8 | UniProt Q5MNZ6_C6 | inactive: 0.235
9 | SPECC1 C493 (UniProt Q5M775) | inactive: 0.129
10 | ANKRD54 C137 (UniProt Q6NXT1) | inactive: 0.138
11 | ZMYM4 C1264 (UniProt Q5VZL5) | inactive: 0.961
12 | BCORL1 C139 (UniProt Q5H9F3) | inactive: 0.368
13 | UniProt Q5TAX3_C994 | inactive: 0.216
14 | PDXDC1 C573 (UniProt Q6P996) | inactive: 0.19
15 | ZNF318 C349 (UniProt Q5VUA4) | inactive: 0.153
16 | CEP135 C316 (UniProt Q66GS9) | inactive: 0.0231
17 | NOM1 C65 (UniProt Q5C9Z4) | inactive: 0.385
18 | FAAP20 C70 (UniProt Q6NZ36) | inactive: 0.0415
19 | ANKRD40 C209 (UniProt Q6AI12) | inactive: 0.466

Row | Target | log2 ratio of iodoacetamide-alkyne labeling
20 | CEP170 C212 (UniProt Q5SW79) | inactive: 0.521
21 | UBAP2 C104 (UniProt Q5T6F2) | inactive: 0.602
22 | BCOR C1044 (UniProt Q6W2J9) | inactive: 0.458
23 | UBN2 C966 (UniProt Q6ZU65) | inactive: 0.614
24 | RIF1 C1865 (UniProt Q5UIP0) | inactive: 0.29
25 | NIPBL C1795 (UniProt Q6KC79) | inactive: -0.189
26 | RPRD2 C88 (UniProt Q5VT52) | inactive: 0.209
27 | RSBN1L C280 (UniProt Q6PCB5) | inactive: 0.649
28 | PRPF8 C2144 (UniProt Q6P2Q9) | inactive: 0.243
29 | MTHFD1L C828 (UniProt Q6UB35) | inactive: -0.0518
30 | UniProt Q5VWQ0_C671 | inactive: 0.327
31 | UniProt Q5FBB7_C44 | inactive: 0.306
32 | PITRM1 C313 (UniProt Q5JRX3) | inactive: 0.195
33 | UniProt Q63HQ0_C157 | inactive: 0.479
34 | MTHFD1L C778 (UniProt Q6UB35) | active: 1.1
35 | ARMC6 C484 (UniProt Q6NXE6) | inactive: 0.144
36 | LIN9 C435 (UniProt Q5TKA1) | inactive: 0.606
37 | EARS2 C341 (UniProt Q5JPH6) | inactive: 0.0779
38 | UniProt Q69YN4_C353 | inactive: 0.312

Looked up one by one from the entries so far, 2 records:
Row | Target | log2 ratio of iodoacetamide-alkyne labeling
27 | RSBN1L C280 (UniProt Q6PCB5) | inactive: 0.649
29 | MTHFD1L C828 (UniProt Q6UB35) | inactive: -0.0518
